doi:10.1101/2022.05.11.491551
Numbering of substitutions follows the chain as printed. Like-named read-outs stand apart in the source and are kept apart here. No constants are given. Whether binding was seen depends on the method and setting. Some binding calls cover weakened binding; strength is not graded here. Tags and fused reporters may be left off the sequences shown. Blank lines part the entries; values can stand above or below the molecule they belong to.

Protein sequences, listed by entry. Tags and fused reporters are not part of them.
UniProt P48578: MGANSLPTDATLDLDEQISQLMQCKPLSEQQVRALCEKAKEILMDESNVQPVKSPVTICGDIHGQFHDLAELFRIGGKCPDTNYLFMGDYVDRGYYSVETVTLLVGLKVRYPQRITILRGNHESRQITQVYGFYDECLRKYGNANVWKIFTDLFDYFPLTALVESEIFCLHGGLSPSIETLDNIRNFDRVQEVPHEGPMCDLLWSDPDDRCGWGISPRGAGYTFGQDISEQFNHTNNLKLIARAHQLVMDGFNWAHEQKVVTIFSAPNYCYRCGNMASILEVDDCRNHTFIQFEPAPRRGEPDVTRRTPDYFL

What was measured:
Assay in all cases: two-hybrid
[1] = biological target: T1, PP2A regulatory subunit Bβ, yeast two-hybrid fusion (Arabidopsis thaliana) (UniProt Q39247)
T1 sequence: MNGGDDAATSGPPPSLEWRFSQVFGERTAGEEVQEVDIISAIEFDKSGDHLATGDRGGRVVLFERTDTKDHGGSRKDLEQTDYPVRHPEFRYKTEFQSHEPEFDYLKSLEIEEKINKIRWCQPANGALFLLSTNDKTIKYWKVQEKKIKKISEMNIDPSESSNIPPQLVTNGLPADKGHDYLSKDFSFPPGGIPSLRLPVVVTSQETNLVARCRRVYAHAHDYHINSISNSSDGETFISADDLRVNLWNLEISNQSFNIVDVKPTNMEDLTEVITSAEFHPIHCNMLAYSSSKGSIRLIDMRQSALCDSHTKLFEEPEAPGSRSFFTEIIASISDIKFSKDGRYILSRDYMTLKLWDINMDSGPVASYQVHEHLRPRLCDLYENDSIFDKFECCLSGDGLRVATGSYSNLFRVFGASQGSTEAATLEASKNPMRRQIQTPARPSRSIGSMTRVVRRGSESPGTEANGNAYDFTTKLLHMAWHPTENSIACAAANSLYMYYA

[2] = biological target: T2, PP2A scaffolding subunit A2, yeast two-hybrid fusion (Arabidopsis thaliana) (UniProt Q38950)
T2 sequence: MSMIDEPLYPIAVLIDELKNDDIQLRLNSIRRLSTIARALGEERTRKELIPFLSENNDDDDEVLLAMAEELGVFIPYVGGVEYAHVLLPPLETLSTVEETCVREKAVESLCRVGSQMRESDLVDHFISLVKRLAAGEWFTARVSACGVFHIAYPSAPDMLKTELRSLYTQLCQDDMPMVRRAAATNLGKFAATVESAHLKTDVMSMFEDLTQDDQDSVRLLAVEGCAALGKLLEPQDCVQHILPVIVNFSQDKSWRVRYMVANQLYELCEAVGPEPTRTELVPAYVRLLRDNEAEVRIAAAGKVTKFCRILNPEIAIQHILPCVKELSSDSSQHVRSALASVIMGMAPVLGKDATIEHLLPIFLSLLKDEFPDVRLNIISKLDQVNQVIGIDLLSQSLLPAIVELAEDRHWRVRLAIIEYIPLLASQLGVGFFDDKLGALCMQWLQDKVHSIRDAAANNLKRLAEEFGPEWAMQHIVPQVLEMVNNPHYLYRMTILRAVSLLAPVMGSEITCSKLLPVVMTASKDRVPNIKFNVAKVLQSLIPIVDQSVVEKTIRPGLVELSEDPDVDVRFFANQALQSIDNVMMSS

[3] = biological target: T3, PP2A regulatory subunit Bβ S460A (phospho-dead), yeast two-hybrid fusion (Arabidopsis thaliana) (UniProt Q39247)
T3 sequence: T1 sequence with S460A

[4] = biological target: T4, PP2A regulatory subunit Bβ S460E (phospho-mimic), yeast two-hybrid fusion (Arabidopsis thaliana) (UniProt Q39247)
T4 sequence: T1 sequence with S460E

[5] = biological target: T1, PP2A regulatory subunit Bβ, yeast two-hybrid fusion (Arabidopsis thaliana); remark: listed apart in the source
[6] = biological target: T2, PP2A scaffolding subunit A2, yeast two-hybrid fusion (Arabidopsis thaliana); remark: listed apart in the source

binding [1]: binds | binding [2]: binds | binding [3]: binds | binding [4]: no binding
Molecule: PP2A catalytic subunit C4, yeast two-hybrid fusion (from UniProt P48578 1-313) (enzyme)

binding [5]: no binding | binding [6]: binds
B1: ETHYLENE … ROOT 1 (EIR1), yeast two-hybrid fusion (protein, UniProt Q9LU77 1-647)
chain: MITGKDMYDVLAAMVPLYVAMILAYGSVRWWGIFTPDQCSGINRFVAVFAVPLLSFHFISSNDPYAMNYHFLAADSLQKVVILAALFLWQAFSRRGSLEWMITLFSLSTLPNTLVMGIPLLRAMYGDFSGNLMVQIVVLQSIIWYTLMLFLFEFRGAKLLISEQFPETAGSITSFRVDSDVISLNGREPLQTDAEIGDDGKLHVVVRRSSAASSMISSFNKSHGGGLNSSMITPRASNLTGVEIYSVQSSREPTPRASSFNQTDFYAMFNASKAPSPRHGYTNSYGGAGAGPGGDVYSLQSSKGVTPRTSNFDEEVMKTAKKAGRGGRSMSGELYNNNSVPSYPPPNPMFTGSTSGASGVKKKESGGGGSGGGVGVGGQNKEMNMFVWSSSASPVSEANAKNAMTRGSSTDVSTDPKVSIPPHDNLATKAMQNLIENMSPGRKGHVEMDQDGNNGGKSPYMGKKGSDVEDGGPGPRKQQMPPASVMTRLILIMVWRKLIRNPNTYSSLFGLAWSLVSFKWNIKMPTIMSGSISILSDAGLGMAMFSLGLFMALQPKIIACGKSVAGFAMAVRFLTGPAVIAATSIAIGIRGDLLHIAIVQAALPQGIVPFVFAKEYNVHPDILSTAVIFGMLVALPVTVLYYVLLGL
